Results reported in PMC7215387, “Comparison of Target Recognition by TRAF1 and TRAF2” (International Journal of Molecular Sciences, 2020).
These are yes or no findings as the source states them, for the method shown. Some results given as binding are weak or reduced against the parent protein; the word gives no strength.

Biological target: T1, TRAF1 TRAF domain (amino acid residues 220-416) (UniProt Q13077)
T1 sequence: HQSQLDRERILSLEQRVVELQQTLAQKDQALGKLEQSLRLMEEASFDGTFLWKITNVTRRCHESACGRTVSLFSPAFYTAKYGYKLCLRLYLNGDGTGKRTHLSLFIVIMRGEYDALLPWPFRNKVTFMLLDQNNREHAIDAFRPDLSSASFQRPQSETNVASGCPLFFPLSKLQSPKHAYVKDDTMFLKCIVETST
Test: SEC; Superdex 200 10/30; proteins mixed, 1 h at 4 °C, concentrated to 4-5 mg/mL; 20 mM Tris pH 8.0, 150 mM NaCl; fractions on SDS-PAGE; both purified

B1: N-terminal domain of TRADD (TRADD-N, amino acid residues 1-163) (domain or fragment, UniProt Q15628 1-163, looked up)
chain: MAAGQNGHEEWVGSAYLFVESSLDKVVLSDAYAHPQQKVAVYRALQAALAESGGSPDVLQMLKIHRSDPQLIVQLRFCGRQPCGRFLRAYREGALRAALQRSLAAALAQHSVPLQLELRAGAERLDALLADEERCLSCILAQQPDRLRDEELAELEDALRNLK
notes: TRADD (tumor necrosis factor receptor type 1-associated death domain protein), N-terminal domain, residues 1-163; Cloned into pET24a by NdeI and XhoI; source: E. coli, purified (almost identical to the method for TRAF1 and TRAF2; SEC in 20 mM Tris-HCl pH 8.0, 150 mM NaCl)
For B1, the binding was “binds weakly”.
